We go through two molecules from article PMC4703885.

The chains behind the UniProt entries cited, without tags or fusion partners.
UniProt Q14974: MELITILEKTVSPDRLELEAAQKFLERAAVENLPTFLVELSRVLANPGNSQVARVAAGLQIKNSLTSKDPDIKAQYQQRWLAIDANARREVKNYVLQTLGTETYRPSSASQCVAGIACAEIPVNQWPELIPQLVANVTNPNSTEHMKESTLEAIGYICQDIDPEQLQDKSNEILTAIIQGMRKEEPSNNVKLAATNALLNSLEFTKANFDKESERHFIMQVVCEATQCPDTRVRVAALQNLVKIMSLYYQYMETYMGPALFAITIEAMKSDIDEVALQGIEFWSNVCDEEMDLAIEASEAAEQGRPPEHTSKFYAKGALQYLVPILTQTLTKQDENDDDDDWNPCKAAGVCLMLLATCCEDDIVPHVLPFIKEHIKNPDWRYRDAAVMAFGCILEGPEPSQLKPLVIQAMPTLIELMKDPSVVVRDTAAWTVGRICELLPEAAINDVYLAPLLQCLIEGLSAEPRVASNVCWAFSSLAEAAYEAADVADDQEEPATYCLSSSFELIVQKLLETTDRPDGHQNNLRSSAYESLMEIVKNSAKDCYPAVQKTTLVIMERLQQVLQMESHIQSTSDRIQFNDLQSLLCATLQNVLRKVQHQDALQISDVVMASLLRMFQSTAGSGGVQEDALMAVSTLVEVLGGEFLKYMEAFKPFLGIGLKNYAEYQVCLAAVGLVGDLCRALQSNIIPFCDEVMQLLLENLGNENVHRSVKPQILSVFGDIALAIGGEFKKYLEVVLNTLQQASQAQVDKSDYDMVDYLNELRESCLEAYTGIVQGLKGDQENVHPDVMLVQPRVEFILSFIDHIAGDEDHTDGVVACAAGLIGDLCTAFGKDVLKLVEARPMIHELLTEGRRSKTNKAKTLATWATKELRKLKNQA

Experiment [1] has as its target T1, EGFP-tagged RepoMan-WT (UniProt Q69YH5).
T1 sequence: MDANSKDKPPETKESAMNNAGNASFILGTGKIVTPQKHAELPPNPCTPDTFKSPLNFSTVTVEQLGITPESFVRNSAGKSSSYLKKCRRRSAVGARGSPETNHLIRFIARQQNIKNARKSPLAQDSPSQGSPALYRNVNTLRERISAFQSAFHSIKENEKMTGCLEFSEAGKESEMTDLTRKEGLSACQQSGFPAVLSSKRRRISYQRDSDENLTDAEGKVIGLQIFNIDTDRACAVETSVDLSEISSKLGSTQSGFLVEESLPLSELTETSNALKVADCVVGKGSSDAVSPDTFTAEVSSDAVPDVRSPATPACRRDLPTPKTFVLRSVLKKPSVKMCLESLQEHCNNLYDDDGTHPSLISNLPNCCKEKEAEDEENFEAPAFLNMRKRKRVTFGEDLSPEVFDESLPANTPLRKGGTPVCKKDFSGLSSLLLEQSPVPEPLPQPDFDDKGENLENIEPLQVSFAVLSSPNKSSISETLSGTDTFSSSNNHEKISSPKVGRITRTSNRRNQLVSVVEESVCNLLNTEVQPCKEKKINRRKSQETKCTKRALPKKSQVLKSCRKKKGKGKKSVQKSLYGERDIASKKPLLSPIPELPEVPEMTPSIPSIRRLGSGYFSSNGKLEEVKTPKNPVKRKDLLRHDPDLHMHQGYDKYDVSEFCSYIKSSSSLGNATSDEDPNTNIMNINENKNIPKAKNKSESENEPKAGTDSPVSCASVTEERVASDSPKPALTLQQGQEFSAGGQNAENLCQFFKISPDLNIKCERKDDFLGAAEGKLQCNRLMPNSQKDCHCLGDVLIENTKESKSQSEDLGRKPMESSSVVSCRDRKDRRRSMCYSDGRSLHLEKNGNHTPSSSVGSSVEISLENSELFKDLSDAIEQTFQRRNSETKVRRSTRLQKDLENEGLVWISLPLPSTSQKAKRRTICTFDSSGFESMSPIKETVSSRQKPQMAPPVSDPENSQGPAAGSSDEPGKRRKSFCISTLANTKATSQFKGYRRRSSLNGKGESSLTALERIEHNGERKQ
In words: co-IP; EGFP traps of EGFP-RepoMan fusions from lysates of transfected U2OS cells: non-synchronized, Nocodazole-arrested, released, or arrested and treated with 100 uM Roscovitine; immunoblot.

In experiment [2] the target is T1, EGFP-tagged RepoMan-WT. The experiment can be described thus: pull-down; EGFP traps from non-synchronized HEK293T cells washed with 1.5 M NaCl, phosphorylated in vitro with Cdk2 for different times, then added to mitotic cell lysates (HeLa in Fig. 4f); immunoblot of the pelleted traps; only the target purified.
Experiment [3] deals with EGFP-tagged Importin β (UniProt Q14974). The experiment can be described thus: pull-down; EGFP-tagged Importin β with or without Cdk phosphorylation, tested for binding of RepoMan (Supplementary Fig. 6b; legend not shown).
The target of experiment [4] is EGFP-tagged Importin β after Cdk phosphorylation (UniProt Q14974). The experiment is described as above.

These are yes or no findings as the source states them, for the method shown. Binding seen in cells or lysates may run through a third protein. Some results given as binding are weak or reduced against the parent protein; the word gives no strength. For some of these results: Sequences can lack the tags named with a protein.

For “Importin β (endogenous) (from UniProt Q14974 1-876)”, the binding entry in experiment [1] and in experiment [2] was “binds” throughout.

B1: RepoMan (endogenous) (protein, UniProt Q69YH5 1-1023)
chain: MDANSKDKPPETKESAMNNAGNASFILGTGKIVTPQKHAELPPNPCTPDTFKSPLNFSTVTVEQLGITPESFVRNSAGKSSSYLKKCRRRSAVGARGSPETNHLIRFIARQQNIKNARKSPLAQDSPSQGSPALYRNVNTLRERISAFQSAFHSIKENEKMTGCLEFSEAGKESEMTDLTRKEGLSACQQSGFPAVLSSKRRRISYQRDSDENLTDAEGKVIGLQIFNIDTDRACAVETSVDLSEISSKLGSTQSGFLVEESLPLSELTETSNALKVADCVVGKGSSDAVSPDTFTAEVSSDAVPDVRSPATPACRRDLPTPKTFVLRSVLKKPSVKMCLESLQEHCNNLYDDDGTHPSLISNLPNCCKEKEAEDEENFEAPAFLNMRKRKRVTFGEDLSPEVFDESLPANTPLRKGGTPVCKKDFSGLSSLLLEQSPVPEPLPQPDFDDKGENLENIEPLQVSFAVLSSPNKSSISETLSGTDTFSSSNNHEKISSPKVGRITRTSNRRNQLVSVVEESVCNLLNTEVQPCKEKKINRRKSQETKCTKRALPKKSQVLKSCRKKKGKGKKSVQKSLYGERDIASKKPLLSPIPELPEVPEMTPSIPSIRRLGSGYFSSNGKLEEVKTPKNPVKRKDLLRHDPDLHMHQGYDKYDVSEFCSYIKSSSSLGNATSDEDPNTNIMNINENKNIPKAKNKSESENEPKAGTDSPVSCASVTEERVASDSPKPALTLQQGQEFSAGGQNAENLCQFFKISPDLNIKCERKDDFLGAAEGKLQCNRLMPNSQKDCHCLGDVLIENTKESKSQSEDLGRKPMESSSVVSCRDRKDRRRSMCYSDGRSLHLEKNGNHTPSSSVGSSVEISLENSELFKDLSDAIEQTFQRRNSETKVRRSTRLQKDLENEGLVWISLPLPSTSQKAKRRTICTFDSSGFESMSPIKETVSSRQKPQMAPPVSDPENSQGPAAGSSDEPGKRRKSFCISTLANTKATSQFKGYRRRSSLNGKGESSLTALERIEHNGERKQ
Consider B1, for which the binding entry in experiment [3] and in experiment [4] was “binds” throughout.
